Assay results reported in the supplement of paper PMC10849652.
This is one part of the list.

By UniProt entry, the sequences of proteins in these tests, tags left out. Where a name states a change or a piece, a line headed by the entry shows the natural chain unless it says otherwise.
UniProt Q8WWY3: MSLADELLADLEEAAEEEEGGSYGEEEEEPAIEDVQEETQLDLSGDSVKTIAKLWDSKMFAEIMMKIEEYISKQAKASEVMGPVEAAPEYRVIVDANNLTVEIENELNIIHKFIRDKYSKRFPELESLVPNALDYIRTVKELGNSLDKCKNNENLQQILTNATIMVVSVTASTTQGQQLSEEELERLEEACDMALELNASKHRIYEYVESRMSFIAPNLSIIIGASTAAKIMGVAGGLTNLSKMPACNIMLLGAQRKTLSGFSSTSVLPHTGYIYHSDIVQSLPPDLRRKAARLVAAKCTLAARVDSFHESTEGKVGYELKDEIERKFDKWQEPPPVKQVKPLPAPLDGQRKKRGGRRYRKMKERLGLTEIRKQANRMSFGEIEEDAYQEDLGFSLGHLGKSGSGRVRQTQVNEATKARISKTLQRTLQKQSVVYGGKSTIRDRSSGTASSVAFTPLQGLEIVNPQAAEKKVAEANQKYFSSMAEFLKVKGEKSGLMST
UniProt P49642: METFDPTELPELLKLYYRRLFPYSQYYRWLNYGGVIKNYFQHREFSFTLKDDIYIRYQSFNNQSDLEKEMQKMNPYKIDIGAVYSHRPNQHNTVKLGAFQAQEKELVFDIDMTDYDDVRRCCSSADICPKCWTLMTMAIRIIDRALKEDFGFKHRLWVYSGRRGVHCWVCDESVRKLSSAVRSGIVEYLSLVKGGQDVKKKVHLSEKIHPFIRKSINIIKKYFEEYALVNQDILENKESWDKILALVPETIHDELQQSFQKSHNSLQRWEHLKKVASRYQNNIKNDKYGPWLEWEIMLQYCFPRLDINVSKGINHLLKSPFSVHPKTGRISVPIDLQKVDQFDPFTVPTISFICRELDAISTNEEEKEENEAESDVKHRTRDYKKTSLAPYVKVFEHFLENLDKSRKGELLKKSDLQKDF
UniProt Q92733: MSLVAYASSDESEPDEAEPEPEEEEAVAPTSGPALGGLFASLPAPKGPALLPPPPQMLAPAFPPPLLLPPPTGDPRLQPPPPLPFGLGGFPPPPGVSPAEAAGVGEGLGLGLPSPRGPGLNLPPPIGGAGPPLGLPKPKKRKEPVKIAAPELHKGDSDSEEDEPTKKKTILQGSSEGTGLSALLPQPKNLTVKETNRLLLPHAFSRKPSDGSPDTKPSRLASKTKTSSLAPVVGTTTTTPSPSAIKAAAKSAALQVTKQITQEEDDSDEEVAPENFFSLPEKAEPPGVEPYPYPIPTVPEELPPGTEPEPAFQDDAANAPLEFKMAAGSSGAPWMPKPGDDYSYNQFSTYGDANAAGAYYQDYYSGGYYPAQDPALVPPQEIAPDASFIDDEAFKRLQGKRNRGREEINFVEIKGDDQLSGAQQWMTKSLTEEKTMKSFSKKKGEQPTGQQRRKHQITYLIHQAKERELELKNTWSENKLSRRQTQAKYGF
UniProt P78395, whole entry, looked up: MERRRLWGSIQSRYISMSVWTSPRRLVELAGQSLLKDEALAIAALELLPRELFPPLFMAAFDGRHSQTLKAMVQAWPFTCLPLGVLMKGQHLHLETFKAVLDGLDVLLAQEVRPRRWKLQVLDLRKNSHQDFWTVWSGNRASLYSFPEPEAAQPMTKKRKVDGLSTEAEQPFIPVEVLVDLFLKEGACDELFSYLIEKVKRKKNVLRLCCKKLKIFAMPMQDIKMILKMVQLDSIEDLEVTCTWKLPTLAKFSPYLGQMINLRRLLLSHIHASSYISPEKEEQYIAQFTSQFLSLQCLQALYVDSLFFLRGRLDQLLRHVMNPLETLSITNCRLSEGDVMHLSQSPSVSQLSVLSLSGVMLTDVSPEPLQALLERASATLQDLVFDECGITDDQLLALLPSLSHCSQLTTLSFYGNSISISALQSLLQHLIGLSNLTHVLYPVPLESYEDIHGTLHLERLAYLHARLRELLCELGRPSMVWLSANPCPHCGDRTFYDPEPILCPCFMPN
UniProt Q96SB3: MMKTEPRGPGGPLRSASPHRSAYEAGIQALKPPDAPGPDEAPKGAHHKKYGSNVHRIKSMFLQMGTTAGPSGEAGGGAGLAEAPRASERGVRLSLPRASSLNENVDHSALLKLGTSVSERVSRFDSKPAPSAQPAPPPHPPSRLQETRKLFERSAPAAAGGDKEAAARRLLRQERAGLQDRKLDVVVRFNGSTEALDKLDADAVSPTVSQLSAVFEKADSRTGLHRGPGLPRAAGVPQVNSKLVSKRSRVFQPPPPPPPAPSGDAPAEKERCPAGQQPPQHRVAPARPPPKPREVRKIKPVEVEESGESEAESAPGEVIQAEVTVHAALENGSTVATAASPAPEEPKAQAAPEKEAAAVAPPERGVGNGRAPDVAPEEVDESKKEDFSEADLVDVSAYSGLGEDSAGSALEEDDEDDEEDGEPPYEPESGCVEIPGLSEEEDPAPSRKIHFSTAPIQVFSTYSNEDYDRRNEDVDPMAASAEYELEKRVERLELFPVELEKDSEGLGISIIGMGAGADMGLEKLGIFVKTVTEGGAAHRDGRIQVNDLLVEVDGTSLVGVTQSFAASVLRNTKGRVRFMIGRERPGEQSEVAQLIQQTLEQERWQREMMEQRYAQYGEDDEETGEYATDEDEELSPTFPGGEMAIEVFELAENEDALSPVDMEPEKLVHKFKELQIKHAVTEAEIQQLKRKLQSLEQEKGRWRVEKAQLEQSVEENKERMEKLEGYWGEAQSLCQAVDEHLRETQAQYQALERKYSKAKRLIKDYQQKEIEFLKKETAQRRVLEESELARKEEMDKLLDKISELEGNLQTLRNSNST
UniProt Q86WR7: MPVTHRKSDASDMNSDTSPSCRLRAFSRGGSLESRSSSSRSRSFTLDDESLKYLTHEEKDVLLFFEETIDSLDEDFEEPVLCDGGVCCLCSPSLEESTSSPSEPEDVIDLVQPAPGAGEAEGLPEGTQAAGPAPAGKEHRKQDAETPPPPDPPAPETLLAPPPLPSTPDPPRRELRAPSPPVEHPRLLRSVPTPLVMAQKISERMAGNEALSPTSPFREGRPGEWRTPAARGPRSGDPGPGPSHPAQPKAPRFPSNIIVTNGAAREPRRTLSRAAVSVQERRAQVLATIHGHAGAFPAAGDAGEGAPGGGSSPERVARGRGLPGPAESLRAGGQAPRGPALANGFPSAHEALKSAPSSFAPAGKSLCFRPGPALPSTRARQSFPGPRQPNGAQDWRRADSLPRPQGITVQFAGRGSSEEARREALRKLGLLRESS
UniProt P49643: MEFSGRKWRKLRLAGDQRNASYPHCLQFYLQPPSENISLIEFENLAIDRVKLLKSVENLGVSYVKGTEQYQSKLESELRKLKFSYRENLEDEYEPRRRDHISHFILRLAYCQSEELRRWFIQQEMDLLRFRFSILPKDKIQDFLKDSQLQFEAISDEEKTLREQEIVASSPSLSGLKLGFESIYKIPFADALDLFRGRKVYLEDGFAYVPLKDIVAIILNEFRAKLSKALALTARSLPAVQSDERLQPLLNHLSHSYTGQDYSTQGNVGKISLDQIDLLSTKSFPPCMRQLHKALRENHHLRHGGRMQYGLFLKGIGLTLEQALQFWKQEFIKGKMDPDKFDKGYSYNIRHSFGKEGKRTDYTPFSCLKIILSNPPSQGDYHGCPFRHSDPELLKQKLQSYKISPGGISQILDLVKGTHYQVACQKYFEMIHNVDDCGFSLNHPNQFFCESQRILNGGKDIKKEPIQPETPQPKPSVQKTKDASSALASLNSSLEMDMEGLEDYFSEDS
UniProt P30048: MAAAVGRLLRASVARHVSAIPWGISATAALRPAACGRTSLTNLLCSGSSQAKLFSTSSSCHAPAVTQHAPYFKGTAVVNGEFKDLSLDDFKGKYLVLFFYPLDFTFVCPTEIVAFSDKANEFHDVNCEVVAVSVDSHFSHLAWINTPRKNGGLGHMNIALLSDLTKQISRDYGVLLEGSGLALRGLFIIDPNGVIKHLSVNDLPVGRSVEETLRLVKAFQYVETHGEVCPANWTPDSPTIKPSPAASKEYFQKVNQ
UniProt Q12972: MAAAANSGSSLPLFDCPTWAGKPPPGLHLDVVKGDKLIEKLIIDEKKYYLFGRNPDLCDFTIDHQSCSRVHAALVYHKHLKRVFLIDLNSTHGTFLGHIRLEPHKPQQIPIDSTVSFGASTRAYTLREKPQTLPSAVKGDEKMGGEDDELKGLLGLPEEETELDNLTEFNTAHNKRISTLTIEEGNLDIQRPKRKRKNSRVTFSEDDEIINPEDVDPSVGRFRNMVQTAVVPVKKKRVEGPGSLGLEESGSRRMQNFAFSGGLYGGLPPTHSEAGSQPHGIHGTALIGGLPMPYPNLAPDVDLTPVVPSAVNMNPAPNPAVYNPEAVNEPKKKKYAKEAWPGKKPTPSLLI
UniProt O43741: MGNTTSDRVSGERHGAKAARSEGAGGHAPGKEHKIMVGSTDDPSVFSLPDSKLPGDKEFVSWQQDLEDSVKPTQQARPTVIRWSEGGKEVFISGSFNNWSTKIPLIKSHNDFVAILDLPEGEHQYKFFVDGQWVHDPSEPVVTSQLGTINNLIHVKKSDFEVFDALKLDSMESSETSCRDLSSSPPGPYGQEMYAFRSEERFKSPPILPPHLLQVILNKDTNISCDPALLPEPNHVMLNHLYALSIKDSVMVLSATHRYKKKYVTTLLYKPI
UniProt Q15172: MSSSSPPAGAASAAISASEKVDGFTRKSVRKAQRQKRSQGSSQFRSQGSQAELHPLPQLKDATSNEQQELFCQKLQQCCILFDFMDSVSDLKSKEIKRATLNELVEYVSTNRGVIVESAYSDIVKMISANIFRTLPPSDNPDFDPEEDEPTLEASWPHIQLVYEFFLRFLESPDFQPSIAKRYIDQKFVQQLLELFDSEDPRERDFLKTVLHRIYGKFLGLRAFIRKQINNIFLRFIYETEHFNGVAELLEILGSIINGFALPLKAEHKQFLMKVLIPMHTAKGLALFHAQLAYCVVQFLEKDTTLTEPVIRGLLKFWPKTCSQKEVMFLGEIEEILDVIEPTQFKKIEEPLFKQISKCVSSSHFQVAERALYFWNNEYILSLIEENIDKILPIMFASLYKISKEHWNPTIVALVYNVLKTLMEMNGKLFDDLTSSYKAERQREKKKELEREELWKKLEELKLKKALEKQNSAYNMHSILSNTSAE
UniProt Q4J6C6, whole entry, looked up: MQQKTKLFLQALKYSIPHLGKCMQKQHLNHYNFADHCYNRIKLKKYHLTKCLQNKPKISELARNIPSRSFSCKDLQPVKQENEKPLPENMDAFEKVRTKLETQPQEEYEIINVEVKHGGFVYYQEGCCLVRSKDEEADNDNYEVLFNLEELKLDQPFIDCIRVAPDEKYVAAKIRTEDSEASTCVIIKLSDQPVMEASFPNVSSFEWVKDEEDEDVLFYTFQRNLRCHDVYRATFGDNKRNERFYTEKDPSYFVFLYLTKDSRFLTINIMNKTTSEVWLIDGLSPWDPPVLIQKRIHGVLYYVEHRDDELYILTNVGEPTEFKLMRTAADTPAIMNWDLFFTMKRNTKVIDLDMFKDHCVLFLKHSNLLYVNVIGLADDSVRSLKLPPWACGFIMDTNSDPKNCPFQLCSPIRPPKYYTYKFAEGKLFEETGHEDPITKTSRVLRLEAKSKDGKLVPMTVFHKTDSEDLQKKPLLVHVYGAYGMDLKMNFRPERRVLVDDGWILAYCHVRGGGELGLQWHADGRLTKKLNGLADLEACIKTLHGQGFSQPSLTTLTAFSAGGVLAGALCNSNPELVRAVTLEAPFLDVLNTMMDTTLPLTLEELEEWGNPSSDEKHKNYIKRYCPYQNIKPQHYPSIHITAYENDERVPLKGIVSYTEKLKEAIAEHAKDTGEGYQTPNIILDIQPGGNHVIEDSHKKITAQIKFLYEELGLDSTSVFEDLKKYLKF

Experiments:
Assay in all cases: log2 fold change, soluble protein after heating vs DMSO (PISA); higher = thermal stabilisation; K562 cells, 10 uM, 30 min; active = over 0.2 and 3.5 SD of the protein, either way, in both replicates (recomputed)
bafetinib = compound: Cc1ccc(NC(=O)c2ccc(CN3CC[C@H](N(C)C)C3)c(C(F)(F)F)c2)cc1Nc1nccc(-c2cncnc2)n1 [bafetinib]
In short: (§1)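 Thermal stability values are relative to control samples and come from duplicates. They are expressed as log2 fold changes. For measurement, K562 cells (2×10^6 cells/mL) received 10 μM compound for 30 min, and aliquots were heated for 3 min over 48°C-58°C, pooled, and extracted at 4°C in PBS with 0.5% NP-40. Soluble protein, the supernatant after 21,000xg for 90 min, was quantified by TMTpro 16plex LC-MS/MS with equalised channel sums.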

[1] = compound: Cc1cccc(CC(=O)N2CCc3c2ccc(-c2cn(C)c4ncnc(N)c24)c3F)n1
In short: as §1

nilotinib = compound: Cc1cn(-c2cc(NC(=O)c3ccc(C)c(Nc4nccc(-c5cccnc5)n4)c3)cc(C(F)(F)F)c2)cn1 [nilotinib]
In short: as §1

[2] = compound: Cc1nc(Nc2n[nH]c3c2CN(C(=O)N[C@H](CN(C)C)c2ccccc2)C3(C)C)c2sccc2n1
In short: as §1

dasatinib = compound: Cc1nc(Nc2ncc(C(=O)Nc3c(C)cccc3Cl)s2)cc(N2CCN(CCO)CC2)n1 [dasatinib]
In short: as §1

[3] = compound: Cc1ncc(-c2ccnc(Nc3ccc(S(C)(=O)=O)cc3)n2)n1C(C)C
In short: as §1

[4] = compound: Cn1cc(-c2ccc3c(c2)CCN3C(=O)Cc2cccc(C(F)(F)F)c2)c2c(N)ncnc21
In short: as §1

[5] = compound: Cn1cc(-c2ccc3nnc(C(F)(F)c4ccc5ncccc5c4)n3n2)cn1
In short: as §1

tipifarnib = compound: Cn1cncc1[C@@](N)(c1ccc(Cl)cc1)c1ccc2c(c1)c(-c1cccc(Cl)c1)cc(=O)n2C [tipifarnib]
In short: as §1

mubritinib = compound: FC(F)(F)c1ccc(/C=C/c2nc(COc3ccc(CCCCn4ccnn4)cc3)co2)cc1 [mubritinib]
In short: as §1

[6] = compound: NC(=O)Nc1cc(-c2cccc(F)c2)sc1C(=O)N[C@H]1CCCNC1
In short: as §1

[7] = compound: NC(=O)c1cnc(N[C@@H]2CCCC[C@@H]2N)nc1Nc1cccc(-n2nccn2)c1
In short: as §1

[8] = compound: NC1(c2ccc(-c3nc4ccn5c(=O)[nH]nc5c4cc3-c3ccccc3)cc2)CCC1
In short: as §1

[9] = compound: NCC(=O)Nc1ccc(-n2nc(C(F)(F)F)cc2-c2ccc3c(ccc4ccccc43)c2)cc1
In short: as §1

entinostat = compound: Nc1ccccc1NC(=O)c1ccc(CNC(=O)OCc2cccnc2)cc1 [entinostat]
In short: as §1

vorinostat = compound: O=C(CCCCCCC(=O)Nc1ccccc1)NO [vorinostat]
In short: as §1

citarinostat = compound: O=C(CCCCCCNC(=O)c1cnc(N(c2ccccc2)c2ccccc2Cl)nc1)NO [citarinostat]
In short: as §1

silmitasertib = compound: O=C(O)c1ccc2c(c1)nc(Nc1cccc(Cl)c1)c1ccncc12 [silmitasertib]
In short: as §1

[10] = compound: O=C1NC(=O)C(c2cnc3ccccn23)=C1c1cn2c3c(cc(F)cc13)CN(C(=O)N1CCCCC1)CC2
In short: as §1

[11] = compound: c1cc(OCCN2CCCCC2)cc(-c2n[nH]c3ccc(-c4nnc[nH]4)cc23)c1
In short: as §1

Measured: log2 fold change

PRPF31 (UniProt Q8WWY3)
inactive: bafetinib -0.012 | [1] 0.01 | nilotinib -0.037 | dasatinib -0.274 | [3] -0.387 | [4] 0.055 | [5] 0.053 | tipifarnib -0.031 | mubritinib -0.014 | [6] -0.076 | [7] -0.138 | [8] -0.241 | [9] -0.065 | entinostat 0.071 | vorinostat 0.182 | citarinostat 0.042 | silmitasertib -0.038 | [10] -0.194 | [11] -0.038
active: [2] -0.572

PRIM1 (UniProt P49642)
inactive: bafetinib 0.046 | [1] 0.01 | nilotinib -0.034 | [2] -0.055 | dasatinib -0.161 | [3] -0.009 | [4] -0.033 | [5] 0.009 | tipifarnib -0.073 | mubritinib 0.06 | [6] -0.008 | [7] -0.016 | [8] -0.093 | [9] -0.056 | entinostat 0.041 | vorinostat 0.065 | citarinostat 0.063 | silmitasertib 0.089 | [10] 0.023 | [11] -0.037

PRKACA (UniProt P17612)
inactive: bafetinib -0.044 | [1] 0.107 | nilotinib -0.038 | dasatinib -0.107 | [3] -0.051 | [4] 0.01 | [5] -0.117 | tipifarnib -0.036 | mubritinib 0.066 | [6] 0.097 | [7] 0.048 | [8] -0.132 | [9] -0.025 | entinostat -0.019 | vorinostat 0.02 | citarinostat 0.023 | silmitasertib -0.051 | [10] 0.05 | [11] -0.067
active: [2] 0.71

PRCC (UniProt Q92733)
inactive: bafetinib -0.06 | [1] -0.017 | nilotinib 0.049 | [2] -0.039 | dasatinib 0.02 | [3] 0.019 | [4] -0.037 | [5] -0.029 | tipifarnib 0.077 | mubritinib 0.022 | [6] -0.016 | [7] -0.074 | [8] 0.035 | [9] 0 | entinostat -0.015 | vorinostat -0.025 | citarinostat -0.011 | silmitasertib 0.032 | [10] -0.048 | [11] -0.021

PRAME (UniProt P78395)
inactive: bafetinib 0.038 | [1] -0.055 | nilotinib -0.02 | [2] -0.056 | dasatinib 0.008 | [3] -0.05 | [4] -0.056 | [5] -0.025 | tipifarnib -0.032 | mubritinib -0.062 | [6] 0.17 | [7] -0.06 | [8] 0.002 | [9] 0.029 | entinostat 0.023 | vorinostat 0.089 | citarinostat 0.076 | silmitasertib 0.075 | [10] 0.062 | [11] -0.1

PPP1R9B (UniProt Q96SB3)
inactive: bafetinib 0.124 | [1] -0.099 | nilotinib -0.195 | [2] 0.05 | dasatinib 0.228 | [3] 0.001 | [4] -0.306 | [5] -0.148 | tipifarnib -0.006 | mubritinib -0.045 | [6] -0.06 | [7] -0.084 | [8] 0.08 | [9] -0.008 | entinostat -0.153 | vorinostat 0.153 | citarinostat -0.246 | silmitasertib 0.214 | [10] 0.172 | [11] -0.044

PRKAR2A (UniProt P13861)
active: [2] -0.606 | [6] -0.502
inactive: bafetinib 0.029 | [1] 0.007 | nilotinib 0.139 | dasatinib -0.055 | [3] -0.026 | [4] 0.07 | [5] 0.102 | tipifarnib 0.004 | mubritinib 0.042 | [7] -0.071 | [8] -0.002 | [9] -0.039 | entinostat 0.025 | vorinostat -0.012 | citarinostat 0.002 | silmitasertib 0.051 | [10] 0.002 | [11] -0.028

PROSER2 (UniProt Q86WR7)
inactive: bafetinib -0.05 | [1] -0.064 | nilotinib 0.084 | [2] -0.156 | dasatinib -0.099 | [3] 0 | [4] 0.039 | [5] 0.073 | tipifarnib 0.04 | mubritinib -0.056 | [6] 0.003 | [7] 0.048 | [8] -0.103 | [9] 0.108 | entinostat 0.015 | vorinostat -0.082 | citarinostat 0.055 | silmitasertib -0.008 | [10] 0.02 | [11] 0.044

Taken from the listing (2 entries):
PRAME (UniProt P78395)
inactive: bafetinib 0.038 | [1] -0.055 | nilotinib -0.02 | [2] -0.056 | dasatinib 0.008 | [3] -0.05 | [4] -0.056 | [5] -0.025 | tipifarnib -0.032 | mubritinib -0.062 | [6] 0.17 | [7] -0.06 | [8] 0.002 | [9] 0.029 | entinostat 0.023 | vorinostat 0.089 | citarinostat 0.076 | silmitasertib 0.075 | [10] 0.062 | [11] -0.1

PPP1R9B (UniProt Q96SB3)
inactive: bafetinib 0.124 | [1] -0.099 | nilotinib -0.195 | [2] 0.05 | dasatinib 0.228 | [3] 0.001 | [4] -0.306 | [5] -0.148 | tipifarnib -0.006 | mubritinib -0.045 | [6] -0.06 | [7] -0.084 | [8] 0.08 | [9] -0.008 | entinostat -0.153 | vorinostat 0.153 | citarinostat -0.246 | silmitasertib 0.214 | [10] 0.172 | [11] -0.044

The listing continues:

PRIM2 (UniProt P49643)
inactive: bafetinib 0.007 | [1] -0.019 | nilotinib -0.063 | [2] -0.06 | dasatinib -0.128 | [3] 0.021 | [4] 0.015 | [5] 0.046 | tipifarnib -0.018 | mubritinib 0.101 | [6] -0.035 | [7] -0.141 | [8] -0.16 | [9] -0.061 | entinostat 0.058 | vorinostat 0.098 | citarinostat 0.135 | silmitasertib 0.033 | [10] -0.096 | [11] -0.018

PRDX3 (UniProt P30048)
inactive: bafetinib -0.046 | [1] -0.024 | nilotinib 0.046 | [2] 0.013 | dasatinib 0.07 | [3] -0.017 | [4] -0.064 | [5] 0.001 | tipifarnib 0.031 | mubritinib 0.04 | [6] -0.014 | [7] -0.081 | [8] 0.027 | [9] -0.034 | entinostat 0.008 | vorinostat -0.077 | citarinostat -0.006 | silmitasertib -0.016 | [10] -0.022 | [11] -0.008

PPP1R8 (UniProt Q12972)
inactive: bafetinib -0.005 | [1] 0.051 | nilotinib -0.015 | [2] -0.037 | dasatinib -0.055 | [3] 0.015 | [4] 0.031 | [5] -0.035 | tipifarnib -0.005 | mubritinib 0.128 | [6] 0.028 | [7] -0.022 | [8] -0.036 | [9] -0.035 | entinostat 0.02 | vorinostat 0.03 | citarinostat 0.058 | silmitasertib 0.002 | [10] 0.012 | [11] 0.014

PRKAB2 (UniProt O43741)
inactive: bafetinib 0.027 | [1] -0.01 | nilotinib -0.022 | [2] -0.184 | dasatinib -0.16 | [3] 0.082 | [4] 0.142 | [5] -0.034 | tipifarnib -0.046 | mubritinib -0.02 | [6] 0.204 | [7] 0.248 | [8] -0.077 | [9] 0.162 | entinostat 0.186 | vorinostat 0.099 | citarinostat -0.1 | silmitasertib 0.031 | [10] 0.121 | [11] -0.47

PPP2R5A (UniProt Q15172)
inactive: bafetinib -0.008 | [1] 0.027 | nilotinib -0.075 | [2] -0.039 | dasatinib -0.205 | [3] 0.006 | [4] 0.032 | [5] 0.006 | tipifarnib -0.179 | mubritinib 0.012 | [6] 0.098 | [7] 0.009 | [9] -0.013 | entinostat 0.094 | vorinostat 0.106 | citarinostat 0.114 | silmitasertib -0.059 | [10] -0.044 | [11] -0.021
active: [8] -0.254

PRMT8 (UniProt Q9NR22)
inactive: bafetinib 0.002 | [1] 0.032 | nilotinib -0.036 | [2] 0.048 | dasatinib -0.064 | [3] 0.02 | [4] 0.064 | [5] -0.066 | tipifarnib -0.136 | mubritinib 0.035 | [7] -0.149 | [8] -0.118 | [9] -0.054 | entinostat 0.21 | vorinostat 0.029 | citarinostat -0.031 | silmitasertib -0.039 | [10] -0.057 | [11] -0.006
active: [6] 0.403

PRKCG (UniProt P05129)
inactive: bafetinib -0.012 | [1] 0.067 | nilotinib 0.019 | [2] -0.385 | dasatinib 0.022 | [3] 0.018 | [4] 0.015 | [5] -0.132 | tipifarnib -0.095 | mubritinib 0.047 | [6] -0.064 | [7] -0.043 | [8] -0.086 | [9] 0.068 | entinostat 0.117 | vorinostat 0.109 | citarinostat 0.193 | silmitasertib 0.062 | [10] -0.229 | [11] 0.082

PREPL (UniProt Q4J6C6)
inactive: bafetinib -0.069 | [1] 0.024 | nilotinib 0.005 | [2] -0.006 | dasatinib -0.07 | [3] -0.014 | [4] 0.027 | [5] -0.001 | tipifarnib -0.024 | mubritinib 0.059 | [6] -0.047 | [7] -0.057 | [8] -0.093 | [9] -0.029 | entinostat -0.04 | vorinostat 0.029 | citarinostat 0.014 | silmitasertib 0.005 | [10] -0.103 | [11] -0.032
